Experimental data published in publication PMC8345877.
Results are given in words; binding and its absence hold for the method and conditions named. In cells and extracts the contact can be indirect. A result given as binding can be weak or reduced; the word gives no strength. Sequences can lack the tags named with a protein.

Target: T1, CD97β-2HA (β subunit of CD97 with a double HA epitope on its intracellular C terminus) (mouse) (UniProt Q9Z0M6)
T1 sequence: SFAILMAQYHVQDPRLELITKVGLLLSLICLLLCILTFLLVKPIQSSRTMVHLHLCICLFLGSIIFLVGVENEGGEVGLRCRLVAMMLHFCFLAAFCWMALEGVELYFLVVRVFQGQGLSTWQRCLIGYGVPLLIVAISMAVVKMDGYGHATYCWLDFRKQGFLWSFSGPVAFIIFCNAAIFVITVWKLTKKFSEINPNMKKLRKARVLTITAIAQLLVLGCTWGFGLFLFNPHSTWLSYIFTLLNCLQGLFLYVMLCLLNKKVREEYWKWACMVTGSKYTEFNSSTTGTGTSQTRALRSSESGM
Test: co-IP; anti-HA sepharose beads on the post-nuclear lysate of MutuDCs stably expressing CD97-2HA and GFP or GFP-SteD, activated with 100 ng/ml LPS for 24 h; lysis buffer 150 mM NaCl, 50 mM Tris pH 7.4, 5 mM EDTA, 0.5% Triton X100, 5% glycerol; 7 h at 4°C; immunoblot

Substance: GFP-SteD (S. Typhimurium)
- binding: binds
